Consider 39 compounds from the supplement of paper PMC8007513.

Some of the results follow. Most values come without repeats; read them as rough.

The assay concerns Saccharomyces cerevisiae BY4743. As to the kind of experiment: growth (OD600) with compound + IPBC relative to untreated control; higher = less growth inhibition. As to conditions: compound concentration: 133 uM; IPBC concentration: 0.5 ug/ml; 20 h. The method, then: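 NMCCC compounds (133 uM) combined with IPBC (0.5 ug/ml) against Saccharomyces cerevisiae BY4743 in YPD, 96-well plates. Growth was read as OD600 at 20 h and expressed as % of the untreated control. Single pass.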
In the case of `CCOC(=O)c1ccc(NC(=O)CSc2nc3[nH]cc(Br)c(C)c-3n2)cc1` + CCCCNC(=O)OCC#CI [3-iodo-2-propynyl butylcarbamate (IPBC)], the growth was determined as 83.1%.

For `O=C(NCc1ccco1)N1CCN(c2ccccn2)CC1` + CCCCNC(=O)OCC#CI [3-iodo-2-propynyl butylcarbamate (IPBC)], the growth was determined as 86.8%.

In the case of `COc1ccc(CNC(=O)COC(=O)Cc2c(C)nn(C)c2C)cc1` + CCCCNC(=O)OCC#CI [3-iodo-2-propynyl butylcarbamate (IPBC)], the growth was found to be 90.7%.

On to `COc1cc(NC(=O)c2ccc3c(c2)NC(=O)CS3)cc(OC)c1OC` + CCCCNC(=O)OCC#CI [3-iodo-2-propynyl butylcarbamate (IPBC)], for which the growth was 107%.

As to `CCN(CC(=O)NC1=CC=C(NC(C)=O)C=C1)C(=O)C/2=N/N(C)C(=O)/C=C2` + CCCCNC(=O)OCC#CI [3-iodo-2-propynyl butylcarbamate (IPBC)], the growth is 109%.

Take `COc1ccc(-c2noc(N(C)CC(=O)Nc3ccc(Br)cc3C)n2)cc1` + CCCCNC(=O)OCC#CI [3-iodo-2-propynyl butylcarbamate (IPBC)]: the growth was 62.3%.

Take `CSc1nc2nc(C)cc(C(F)(F)F)n2n1` + CCCCNC(=O)OCC#CI [3-iodo-2-propynyl butylcarbamate (IPBC)]: the growth was determined as 110%.

Regarding `Cc1cccc(NC(=O)CN(C)C(=O)c2cnn(-c3ccccc3F)c2C)c1C` + CCCCNC(=O)OCC#CI [3-iodo-2-propynyl butylcarbamate (IPBC)], the growth came to 99%.

`Cc1ccc2c(c1)C(=O)CCCS2(=O)=O` + CCCCNC(=O)OCC#CI [3-iodo-2-propynyl butylcarbamate (IPBC)]: the growth is 109%.

For `CC1=C(N[S](=O)(=O)C/2=C(C)/N=C\3S\C=C/N3C2=O)C(=CC=C1)C` + CCCCNC(=O)OCC#CI [3-iodo-2-propynyl butylcarbamate (IPBC)], the growth came out at 104%.

On to `O=C(CCC\C1=N\[S](=O)(=O)C2=CC=CC=C2N1)OCC3=CC=CC=C3C#N` + CCCCNC(=O)OCC#CI [3-iodo-2-propynyl butylcarbamate (IPBC)], for which the growth came out at 103%.

In the case of `COC(=O)c1ccn(CC(=O)Nc2ccc(C)cc2C)n1` + CCCCNC(=O)OCC#CI [3-iodo-2-propynyl butylcarbamate (IPBC)], the growth was 87.5%.

As for `COC(=O)c1sccc1NS(=O)(=O)c1ccc(Cl)s1` + CCCCNC(=O)OCC#CI [3-iodo-2-propynyl butylcarbamate (IPBC)], the growth came to 87.6%.

As for `Cn1cnc(S(=O)(=O)N2CC(OCc3ccc(Cl)cc3)C2)c1` + CCCCNC(=O)OCC#CI [3-iodo-2-propynyl butylcarbamate (IPBC)], the growth is 81.4%.

As for `Cc1nn(CC(=O)Nc2ccccc2C(F)(F)F)c2ccccc12` + CCCCNC(=O)OCC#CI [3-iodo-2-propynyl butylcarbamate (IPBC)], the growth came to 105%.

As for `COC(=O)c1c(NC(=O)CSc2nc(O)c3ccccc3n2)sc(C)c1C` + CCCCNC(=O)OCC#CI [3-iodo-2-propynyl butylcarbamate (IPBC)], the growth turned out to be 96.1%.

On to `CCOc1ccc(N(C)S(=O)(=O)c2ccc3c(c2)NC(=O)CC(C)S3)cc1` (centres undefined) + CCCCNC(=O)OCC#CI [3-iodo-2-propynyl butylcarbamate (IPBC)], for which the growth came out at 96.1%.

Turning to `CCN\1C(=O)NC(=O)\C(=C1N)SC2=NC3=CC=CC=C3S2` + CCCCNC(=O)OCC#CI [3-iodo-2-propynyl butylcarbamate (IPBC)], the growth was 96.7%.

For the compound `CSCCC(NC(=O)c1ccc(C(C)(C)C)cc1)C(=O)Nc1ccc(N2CCOCC2)cc1` (centres undefined) + CCCCNC(=O)OCC#CI [3-iodo-2-propynyl butylcarbamate (IPBC)], the growth was determined as 95.4%.

As for `CCOC(=O)C1CCN(C(=O)CCS(=O)(=O)c2ccc3c(c2)CC(C)N3C(=O)CC)CC1` (centres undefined) + CCCCNC(=O)OCC#CI [3-iodo-2-propynyl butylcarbamate (IPBC)], the growth is 88.7%.

Turning to `CCc1cc2c(SC(C(N)=O)c3ccc(F)cc3)ncnc2s1` (centres undefined) + CCCCNC(=O)OCC#CI [3-iodo-2-propynyl butylcarbamate (IPBC)], the growth came out at 94.9%.

Take `COc1ccc(NC(=O)c2c(C)nn(Cc3ccccc3Cl)c2C)cc1` + CCCCNC(=O)OCC#CI [3-iodo-2-propynyl butylcarbamate (IPBC)]: the growth was determined as 80.7%.

With `O=C(Cc1csc(NC(=O)NC2CCCC2)n1)Nc1ccc(Cl)c(Cl)c1` + CCCCNC(=O)OCC#CI [3-iodo-2-propynyl butylcarbamate (IPBC)], the growth is 112%.

For the compound `COC(=O)c1c(C)[nH]c(C(=O)CN2CCN(c3nccs3)CC2)c1C` + CCCCNC(=O)OCC#CI [3-iodo-2-propynyl butylcarbamate (IPBC)], the growth is 84.5%.

With `CC(C)(C)NC(=O)CN1CCCN(C(=O)CCc2ccc(S(=O)(=O)N3CCOCC3)cc2)CC1` + CCCCNC(=O)OCC#CI [3-iodo-2-propynyl butylcarbamate (IPBC)], the growth was determined as 105%.

For the compound `Cc1cc(C(=O)O)cc(S(=O)(=O)Nc2ccccc2OC(F)F)c1C` + CCCCNC(=O)OCC#CI [3-iodo-2-propynyl butylcarbamate (IPBC)], the growth was 99.1%.

For the compound `CCCCC(=O)Nc1cc(O)nc2nc(-c3ccc(Cl)cc3)nn12` + CCCCNC(=O)OCC#CI [3-iodo-2-propynyl butylcarbamate (IPBC)], the growth came out at 86.5%.

Regarding `CC(C)C[C@@H](C(=O)Nc1cccnc1)N1Cc2ccccc2C1=O` + CCCCNC(=O)OCC#CI [3-iodo-2-propynyl butylcarbamate (IPBC)], the growth turned out to be 96%.

With `CCOC(=O)N1CCN(c2ncc3c(n2)CCCC3=O)CC1` + CCCCNC(=O)OCC#CI [3-iodo-2-propynyl butylcarbamate (IPBC)], the growth turned out to be 109%.

Regarding `O=C(CCSc1nc(-c2ccco2)cc(C(F)(F)F)n1)NCCN1CCOCC1` + CCCCNC(=O)OCC#CI [3-iodo-2-propynyl butylcarbamate (IPBC)], the growth was 82.5%.

`CCOc1ccc(NC(=O)C2CCCCN2S(=O)(=O)c2ccc(Br)cc2)cc1` (centres undefined) + CCCCNC(=O)OCC#CI [3-iodo-2-propynyl butylcarbamate (IPBC)]: the growth turned out to be 88.2%.

For `CCC(C)NS(=O)(=O)c1ccc2c(c1)N(C)CCO2` (centres undefined) + CCCCNC(=O)OCC#CI [3-iodo-2-propynyl butylcarbamate (IPBC)], the growth worked out at 101%.

For the compound `Nc1nnc(SCc2nc(-c3cccc(C(F)(F)F)c3)no2)s1` + CCCCNC(=O)OCC#CI [3-iodo-2-propynyl butylcarbamate (IPBC)], the growth came to 99.2%.

As to `COc1cccc(C(=O)Oc2c(S(=O)(=O)c3ccccc3)c(C)nn2C(C)(C)C)c1OC` + CCCCNC(=O)OCC#CI [3-iodo-2-propynyl butylcarbamate (IPBC)], the growth worked out at 93.2%.

Turning to `CC(Sc1n[nH]c(-c2ccc(Cl)cc2)n1)C(=O)NC1CCCCC1` (centres undefined) + CCCCNC(=O)OCC#CI [3-iodo-2-propynyl butylcarbamate (IPBC)], the growth was found to be 79.1%.

Take `CCC(C)N\1C(=O)C2=CC=CC=C2\N=C1SCC(=O)N3CCNC3=O` (centres undefined) + CCCCNC(=O)OCC#CI [3-iodo-2-propynyl butylcarbamate (IPBC)]: the growth turned out to be 77.3%.

`C[N]1N=CC(=C1C)N2\N=N/C3=C([N](C)N=C3)C2=O` + CCCCNC(=O)OCC#CI [3-iodo-2-propynyl butylcarbamate (IPBC)]: the growth stood at 108%.

Regarding `Cc1nc2ccccc2nc1NCc1ccnc(OCC(F)(F)F)c1` + CCCCNC(=O)OCC#CI [3-iodo-2-propynyl butylcarbamate (IPBC)], the growth is 22.2%.

As for `CCOC(=O)C1CCN(C(=O)c2cc(-c3cccnc3)on2)CC1` + CCCCNC(=O)OCC#CI [3-iodo-2-propynyl butylcarbamate (IPBC)], the growth was 74.6%.
